Measured values as given in PMC11147952.
Residue numbers refer to the chain shown, from its start. Names may count otherwise. Results are given in words; binding and its absence hold for the method and conditions named. Binding seen in cells or lysates may run through a third protein. Some entries that bind do so weakly or less than the wild type. For some assays here: Where a sequence is shown, tags or fusion partners need not be part of it.

T1: Regnase-1 D141N (catalytically inactive, lentivirally expressed in BMMCs) (mouse) (UniProt Q5D1E7)
T1 sequence: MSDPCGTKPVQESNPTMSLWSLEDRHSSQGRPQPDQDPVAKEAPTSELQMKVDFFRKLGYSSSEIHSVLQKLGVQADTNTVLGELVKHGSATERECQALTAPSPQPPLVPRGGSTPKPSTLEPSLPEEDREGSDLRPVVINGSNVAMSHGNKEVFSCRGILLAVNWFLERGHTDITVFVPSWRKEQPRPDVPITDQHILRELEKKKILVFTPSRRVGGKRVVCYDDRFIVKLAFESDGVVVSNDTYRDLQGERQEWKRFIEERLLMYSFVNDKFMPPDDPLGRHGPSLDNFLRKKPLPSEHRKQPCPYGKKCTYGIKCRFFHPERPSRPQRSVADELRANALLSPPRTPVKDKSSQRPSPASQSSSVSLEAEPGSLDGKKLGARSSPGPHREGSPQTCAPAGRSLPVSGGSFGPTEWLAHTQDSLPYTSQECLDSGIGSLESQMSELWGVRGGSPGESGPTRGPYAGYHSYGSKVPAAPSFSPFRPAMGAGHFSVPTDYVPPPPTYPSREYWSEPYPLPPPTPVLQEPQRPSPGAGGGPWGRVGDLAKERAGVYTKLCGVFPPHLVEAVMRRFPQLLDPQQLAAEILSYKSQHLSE

T2: Regnase-1 (murine, untagged, pCDNA3, expressed in HEK293T) (mouse) (UniProt Q5D1E7)
T2 sequence: T1 sequence with N141D

B1: Regnase-3 D252N (catalytically inactive, lentivirally expressed in BMMCs) (protein, UniProt Q5DTV4 1-884)
chain: MAAEKTLQEYGVLCIQEYRKSSKVESSARNSFMGLKDHLGHDLGHLYMESTDPQMSAAVPWPMVEKPTMDTVNSGKEGKGVSEENVSSGDSEGSTSSDHESEQLSSLSVEPCSLTKTHRQLCRSPCLEPRLLKHSDILQDFKPEESQTPSKEVKKPPDVVREYQTKLEFALKLGYSEEQVQLVLNKLGTDALINDILGELVKLGNKSEADQTVSTINSVMRETSSLESQRSESPMQEVVVDDGENLRPVVINGSNVAMSHGNKEVFSCRGIKLAVDWFLERGHKDITVFVPAWRKEQSRPDALITDQEILRKLEKEKILVFTPSRRVQGRRVVCYDDRFIVKLAFESDGIIVSNDNYRDLANEKPEWKKFIDERLLMYSFVNDKFMPPDDPLGRHGPSLDNFLRKKPIVPEHKKQPCPYGKKCTYGHKCKYYHPERGSQPQRSVADELRAMSRNTAAKTTNEGGLVKSNSVPCSTKADSTSDVKRGAPKRQSDPSIRTHVYQDIEEKLPTKNKLETRSVPSLVSIPATSTAKPQSTTPLSNGLPSGVHFPPQDQRPQGQYPPMMMATKNHGTPMPYEQYPKCDSPVDVGYYSMLNAYSNLSISGPRSPERRFSLDTDYRVNSVASDCSSEGSMSCGSSDSYVGYNDRSYVSSPDPQLEESLKCQHMHPHSRLNSQPFLQNFHDPLTRVQSYSHEEPKFHPKRPLPHLAMHLQHPAVGARSSCPGDYPSPPSSAHSKAPHLGRSLVATRIDSISDSRLYDSSPSRQRKPYSRQEGLGSWGRPSYGLEAYGYRQTYSLPDNSTPPCYESITFQSLPEQQEPTWRIPYCGMPHDPPRYQDNREKIFINLCNIFPPDLVRLVMKRNPHMTDAQQLAAAILVEKSQLGY
B2: Regnase-3 1-245aa (shortest C-terminal truncation, lacking the PIN domain) (domain or fragment, UniProt Q5DTV4 1-245)
chain: MAAEKTLQEYGVLCIQEYRKSSKVESSARNSFMGLKDHLGHDLGHLYMESTDPQMSAAVPWPMVEKPTMDTVNSGKEGKGVSEENVSSGDSEGSTSSDHESEQLSSLSVEPCSLTKTHRQLCRSPCLEPRLLKHSDILQDFKPEESQTPSKEVKKPPDVVREYQTKLEFALKLGYSEEQVQLVLNKLGTDALINDILGELVKLGNKSEADQTVSTINSVMRETSSLESQRSESPMQEVVVDDGEN

Assays:
[1] = molecular target: T1, Regnase-1 D141N (catalytically inactive, lentivirally expressed in BMMCs) (mouse); assay: co-IP; BMMCs sequentially transduced with lentiviruses encoding Regnase-1 D141N and Regnase-3 D252N; immunoprecipitation with anti-Regnase-1, immunoblot with anti-Regnase-3
[2] = molecular target: T2, Regnase-1 (murine, untagged, pCDNA3, expressed in HEK293T) (mouse); assay: co-IP; HEK293T co-transfected with pCDNA3-Regnase-1 and pCDNA3-Regnase-3 (full-length or C-term truncated) for 48 h; immunoprecipitation with anti-Regnase-1 or anti-Regnase-3, isotype controls; immunoblot

Binder	binding [1]	binding [2]
B1	binds	–
B2	–	no binding
